Assay results published in article PMC4747346, “Interaction of RECQ4 and MCM10 is important for efficient DNA replication origin firing in human cells” (Oncotarget, 2015).
Results are given in words; binding and its absence hold for the method and conditions named. For some of these results: Binding seen in cells or lysates may run through a third protein. Some entries that bind do so weakly or less than the wild type. Sequences can lack the tags named with a protein.

B1: GST-MCM10 (natural protein, human, UniProt Q7L590 1-875, looked up)
chain: MDEEEDNLSLLTALLEENESALDCNSEENNFLTRENGEPDAFDELFDADGDGESYTEEADDGETGETRDEKENLATLFGDMEDLTDEEEVPASQSTENRVLPAPAPRREKTNEELQEELRNLQEQMKALQEQLKVTTIKQTASPARLQKSPVEKSPRPPLKERRVQRIQESTCFSAELDVPALPRTKRVARTPKASPPDPKSSSSRMTSAPSQPLQTISRNKPSGITRGQIVGTPGSSGETTQPICVEAFSGLRLRRPRVSSTEMNKKMTGRKLIRLSQIKEKMAREKLEEIDWVTFGVILKKVTPQSVNSGKTFSIWKLNDLRDLTQCVSLFLFGEVHKALWKTEQGTVVGILNANPMKPKDGSEEVCLSIDHPQKVLIMGEALDLGTCKAKKKNGEPCTQTVNLRDCEYCQYHVQAQYKKLSAKRADLQSTFSGGRIPKKFARRGTSLKERLCQDGFYYGGVSSASYAASIAAAVAPKKKIQTTLSNLVVKGTNLIIQETRQKLGIPQKSLSCSEEFKELMDLPTCGARNLKQHLAKATASGIMGSPKPAIKSISASALLKQQKQRMLEMRRRKSEEIQKRFLQSSSEVESPAVPSSSRQPPAQPPRTGSEFPRLEGAPATMTPKLGRGVLEGDDVLFYDESPPPRPKLSALAEAKKLAAITKLRAKGQVLTKTNPNSIKKKQKDPQDILEVKERVEKNTMFSSQAEDELEPARKKRREQLAYLESEEFQKILKAKSKHTGILKEAEAEMQERYFEPLVKKEQMEEKMRNIREVKCRVVTCKTCAYTHFKLLETCVSEQHEYHWHDGVKRFFKCPCGNRSISLDRLPNKHCSNCGLYKWERDGMLKEKTGPKIGGETLLPRGEEHAKFLNSLK
notes: MCM10, human; construct pGEX-4T-1-MCM10, a gift from Dr. Yilun Liu; also called G-M10; pGEX-4T-1-MCM10; source: E. coli, purified on GSH beads (kept on the beads for pull-downs; eluted with reduced glutathione for the peptide array)
B2: His-tagged RECQ4 FL fragment (RECQ4-MCM10 FL, amino acids 76-145) (domain or fragment, UniProt O94761 76-145)
chain: RCWGPHLNRAATKSPQSTPGRSRQGSVPDYGQRLKANLKGTLQAGPALGRRPWPLGRASSKASTPKPPGT
B3: MBP-RECQ4 1-400-HIS (domain or fragment, UniProt O94761 1-400)
chain: MERLRDVRERLQAWERAFRRQRGRRPSQDDVEAAPEETRALYREYRTLKRTTGQAGGGLRSSESLPAAAEEAPEPRCWGPHLNRAATKSPQSTPGRSRQGSVPDYGQRLKANLKGTLQAGPALGRRPWPLGRASSKASTPKPPGTGPVPSFAEKVSDEPPQLPEPQPRPGRLQHLQASLSQRLGSLDPGWLQRCHSEVPDFLGAPKACRPDLGSEESQLLIPGESAVLGPGAGSQGPEASAFQEVSIRVGSPQPSSSGGEKRRWNEEPWESPAQVQQESSQAGPPSEGAGAVAVEEDPPGEPVQAQPPQPCSSPSNPRYHGLSPSSQARAGKAEGTAPLHIFPRLARHDRGNYVRLNMKQKHYVRGRALRSRLLRKQAWKQKWRKKGECFGGGGATVTTK

Legend:
[1] = molecular target: T1, YFP-RECQ4 (wild type) (human) (UniProt O94761); experiment: co-IP; YFP proteins precipitated with GFP-Trap beads from lysates of transiently transfected U2OS cells (asynchronous, hydroxyurea-arrested, HU-released or nocodazole-arrested); pull-down buffer 10 mM Tris pH 7.5, 200 mM KCl, 10% glycerol, 2 mM MgCl2, 0.5 mM DTT, 0.5% NP-40, benzonase; 2 h at 4°C; immunoblot
T1 sequence: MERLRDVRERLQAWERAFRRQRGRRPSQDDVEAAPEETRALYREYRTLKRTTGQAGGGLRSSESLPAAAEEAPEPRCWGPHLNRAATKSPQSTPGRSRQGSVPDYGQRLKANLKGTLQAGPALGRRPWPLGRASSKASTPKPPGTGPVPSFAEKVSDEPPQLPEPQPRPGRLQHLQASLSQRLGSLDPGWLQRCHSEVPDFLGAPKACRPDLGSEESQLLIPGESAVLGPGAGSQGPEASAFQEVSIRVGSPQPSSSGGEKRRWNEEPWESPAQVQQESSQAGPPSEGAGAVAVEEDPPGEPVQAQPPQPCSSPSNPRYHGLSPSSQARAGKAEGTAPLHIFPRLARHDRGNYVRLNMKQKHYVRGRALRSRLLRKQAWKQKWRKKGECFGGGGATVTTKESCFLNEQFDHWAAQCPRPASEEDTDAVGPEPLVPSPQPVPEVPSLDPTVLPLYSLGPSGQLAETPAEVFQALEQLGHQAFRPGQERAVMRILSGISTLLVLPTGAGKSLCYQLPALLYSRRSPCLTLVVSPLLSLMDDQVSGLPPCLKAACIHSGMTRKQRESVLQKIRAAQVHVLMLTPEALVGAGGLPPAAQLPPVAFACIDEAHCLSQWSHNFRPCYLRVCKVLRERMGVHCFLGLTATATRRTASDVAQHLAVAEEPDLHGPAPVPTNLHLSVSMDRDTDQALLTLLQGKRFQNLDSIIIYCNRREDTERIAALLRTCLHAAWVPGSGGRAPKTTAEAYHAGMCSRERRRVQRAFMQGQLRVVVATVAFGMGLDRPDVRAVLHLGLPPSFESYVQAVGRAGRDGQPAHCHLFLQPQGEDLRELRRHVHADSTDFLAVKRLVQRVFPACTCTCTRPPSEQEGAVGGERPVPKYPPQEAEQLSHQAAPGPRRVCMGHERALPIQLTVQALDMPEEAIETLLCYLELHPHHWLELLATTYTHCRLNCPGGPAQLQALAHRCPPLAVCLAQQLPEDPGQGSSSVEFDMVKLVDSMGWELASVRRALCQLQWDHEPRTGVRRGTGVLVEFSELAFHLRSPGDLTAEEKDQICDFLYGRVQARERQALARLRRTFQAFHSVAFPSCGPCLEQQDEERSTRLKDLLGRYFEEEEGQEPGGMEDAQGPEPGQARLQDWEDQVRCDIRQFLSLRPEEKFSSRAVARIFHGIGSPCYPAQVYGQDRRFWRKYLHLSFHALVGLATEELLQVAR

[2] = molecular target: T2, GST-MCM10 (human) (UniProt Q7L590); experiment: pull-down; GST or GST-MCM10 on GSH beads incubated with bacterial cell lysates expressing His-tagged RECQ4 domains (FL or ID2); washed with YFP pull-down buffer; immunoblot; only the target purified
T2 sequence: B1 chain

[3] = molecular target: T2, GST-MCM10 (human); experiment: pull-down; GST or GST-MCM10 on GSH beads (about 1 μg) incubated with purified HIS-RECQ4 (about 1 μg) or purified MBP-RECQ4-HIS fragments in YFP pull-down buffer, 1 h at 4°C; immunoblot for RECQ4; both purified

Binder | binding [2] | also measured
B1 |  | binding [1]: binds
B2 | binds | 
B3 |  | binding [3]: binds
YGQRLKANLKGTLQAGPALGRRPWPLGRASSKASTPKPPGT (domain or fragment, UniProt O94761 105-145) [His-tagged RECQ4 ID2 fragment (RECQ4-MCM10 ID2 domain, amino acids 105-145)] | no binding | 
